Assay results reported in PubChem BioAssay AID1347426 (Functional Genomics Laboratory (NCATS/FGL), 2020).
The campaign covered roughly 31,000 sequences. About 1,400 (4.5%) were called active.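 The calls were made as follows: active = median seed-adjusted z-score above 1 or below -1; inactive = the rest.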 The list shows a part of the results.

test: Novel Modifiers of Survival Motor Neuron (SMN) Protein: Gene Identification via Genome-wide siRNA Screen; conditions: HEK293T SMN2-luciferase reporter, siRNA knockdown, 72 h; actives lie on both sides;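 also: luminescence tracks full-length SMN protein made from the SMN2 reporter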
Method in brief: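 Luciferase signal, proportional to full-length SMN made from an SMN2 cDNA reporter in stable HEK293T cells, was read 72 h after siRNA reverse transfection. Values were expressed as MAD scores after non-targeting-control normalization and log10 conversion; seed analysis flagged off-targets.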

Sequence | median seed-adjusted z-score
CAGCUGGUCCUGGACCUAATT against GRIN3B | inactive: 0.39
GCUCAUCUGGUUACAGUAATT against SFRS2B | inactive: -0.272
GACCCACUUCCGAUCCAAATT against ZNF593 | inactive: 0.215
GCAGAUAAGUGCGAGGAAATT against TP53BP2 | inactive: 0.157
UCUCCUGUCUGGUCCGAGATT against HSPBP1 | inactive: 0.368
GAGCAGUUAUUCAAGCGGATT against KPNA1 | inactive: -0.0231
GUACUUUUGACAACAUUUATT against NAT13 | inactive: 0
GGUCACAGUUGGAAAGACATT against SIRPG | inactive: -0.109
GGAAGAAGGUCAUCCGAAUTT against PKD1L3 | inactive: -0.658
GACUGAAGGUGGAUUGUCATT against EYA1 | inactive: 0.0838
GGAGUGAUCCUUCUGGUAATT against MEX3C | inactive: 0.0977
CAACGAGGAUGACAACCAATT against ZDHHC15 | inactive: 0.548
GGAUUGCUUCUGACUCCGATT against ELK3 | inactive: -0.16
CAACUUCCAGAUACACCUATT against ISL1 | inactive: 0.138
CAAGAUCAAGAGUUCCUGATT against CYP2B6 | inactive: 0.454
GCAUACCAGGAAUUCCUCATT against APBA1 | inactive: 0.305
CUAAACCACCUGUUCGAAATT against DYNC1LI1 | inactive: -0.683
GGCUUGUAAUUUCAUGCAATT against SYNPO2 | inactive: 0
ACAGAUACCAGGUCAAUAATT against ITGAX | inactive: -0.0677
CCAUCUUCCUGAUCGACGATT against CDH22 | inactive: -0.57
GCUUUAUGAAUCUAGCAAATT against ZNF416 | inactive: 0.668
GGAAGAUCCUCUACCAGAATT against LATS2 | inactive: -0.245
GGUUUAUAAUUGGGAUGUATT against VBP1 | inactive: 0.317

Sequence | median seed-adjusted z-score
GGAAAAGAAGUGUAGCUAUTT against APOH | inactive: 0.0283
CAACCGUCUUACUCUCUUUTT against LRRC15 | inactive: -0.723
CAUGGGUGCUUAUAAGUCATT against IL1A | active: 1.12
CAGGAACACUAUAAUUAUATT against S1PR2 | inactive: -0.964
CAGACAGACUGGUCGUUUATT against KIF9 | inactive: 0
GAGAAGACCUUUAUACGAATT against XPOT | inactive: 0.366
GCACCUUUCUGCUACGGUATT against ZNF526 | inactive: 0.0265
GGGUUUCACGGAUGUCACUTT against SMOX | inactive: -0.148
CAUUGACUACAUUCAGUUUTT against MLX | inactive: 0.126
GGUCAGAACAUUCACCGAATT against CFTR | active: -1.23
GGAUUAUCAAGCACAAGUATT against SLC35D2 | inactive: -0.127
GCCGCAUGGUGGUUGUGAUTT against OPN1SW | inactive: 0.32
GCAGAGGACGAAAAUGAUUTT against SSX1 | inactive: 0.0114
GCACAGAAUCUUCCCUGGATT against TEF | inactive: 0
ACAUGUACCCGGAAAAGCUTT against TFAP4 | inactive: -0.0515
GUGUUAGUAUAAUCGGUUUTT against NDST4 | inactive: 0.426
GAACAUUCUUAAAGCCCUATT against RNF150 | inactive: 0.478
GCCUGGUGUUACCCAUAUATT against ACTR10 | inactive: 0.362
AACUUUCAGUCCCAAGUUATT against NADK | inactive: -0.201
CGUGAACUGGAAAAGAUCATT against GABBR1 | inactive: -0.0526
CGCUCAUCUAUUACCUGGATT against TACSTD2 | inactive: -0.681
GCCUUAUUGGUAAGGUUGATT against F2RL1 | inactive: 0.138
GCAAGUCCCUGUACUAUUATT against ANXA2 | inactive: 0.499

Sequence | median seed-adjusted z-score
UGAUCAACCUCAAGACGGATT against MED16 | inactive: -0.6
GCCCUUACAGGGUAUCAAATT against DDX46 | active: -1.24
GCUGCUGCCUUCAUAUUGATT against EPHB4 | inactive: -0.143
GUGUUUCACUUACCUAUAATT against ING2 | inactive: 0.126
AGUUCCUGAUUGUACGAAUTT against NME6 | inactive: -0.304
CCGGGAACCUGGUUCAGUUTT against PLA2G2E | inactive: -0.37
GCUGGUACCCUGGAGGAAATT against GNRH2 | active: 1.13
GAAUCGGAAUUUAUCAUUATT against CDH9 | inactive: -0.18
CCUCCGUCCUGUUUAGGAATT against LCN2 | inactive: 0.123
UCAUGAGCCUGAUAAGUGATT against PPP2R5D | inactive: 0.848
AGACCAUCCUGAAAGAGCATT against GPRC5C | inactive: 0.498
GCAUCCCUAUCUACAGUUUTT against GPR55 | inactive: -0.114
AGAUGUACCUAUGUCAAGATT against OVOL1 | inactive: -0.0414
GAGGUAUUCUAGUUCCAAUTT against LST-3TM12 | inactive: -0.109
CAGAAAUUAUCGAUAUGUUTT against AKR1C4 | inactive: -0.0323
CUAGAUCGCUUUAAAGUGATT against RCHY1 | inactive: -0.157
CGAAUAUGACCUUCACCAATT against HOMER2 | inactive: 0.522
ACCAUUUCAUGUACCCUGATT against ST3GAL2 | inactive: -0.139
AGAUUAUCAUAUUGGGUGATT against RAB7B | inactive: 0
CCAUGGACACUACCGGUUATT against RELN | inactive: 0.207
CAAUCAAAGCAAAUGUUUUTT against TNRC4 | inactive: 0.801
CAACGACAGUGGUAUUCAATT against DNAJC10 | inactive: 0.0527
CGUCAAUUUGUAUAACUUATT against SLC16A14 | inactive: 0.464

A different layout for part of the listing above:
Sequence	median seed-adjusted z-score
GCCCUUACAGGGUAUCAAATT against DDX46	active: -1.24
GCUGCUGCCUUCAUAUUGATT against EPHB4	inactive: -0.143
GUGUUUCACUUACCUAUAATT against ING2	inactive: 0.126
AGUUCCUGAUUGUACGAAUTT against NME6	inactive: -0.304
CCGGGAACCUGGUUCAGUUTT against PLA2G2E	inactive: -0.37
GCUGGUACCCUGGAGGAAATT against GNRH2	active: 1.13
GAAUCGGAAUUUAUCAUUATT against CDH9	inactive: -0.18
CCUCCGUCCUGUUUAGGAATT against LCN2	inactive: 0.123
UCAUGAGCCUGAUAAGUGATT against PPP2R5D	inactive: 0.848
AGACCAUCCUGAAAGAGCATT against GPRC5C	inactive: 0.498
GCAUCCCUAUCUACAGUUUTT against GPR55	inactive: -0.114
AGAUGUACCUAUGUCAAGATT against OVOL1	inactive: -0.0414
GAGGUAUUCUAGUUCCAAUTT against LST-3TM12	inactive: -0.109
CAGAAAUUAUCGAUAUGUUTT against AKR1C4	inactive: -0.0323
CUAGAUCGCUUUAAAGUGATT against RCHY1	inactive: -0.157
CGAAUAUGACCUUCACCAATT against HOMER2	inactive: 0.522
ACCAUUUCAUGUACCCUGATT against ST3GAL2	inactive: -0.139
AGAUUAUCAUAUUGGGUGATT against RAB7B	inactive: 0
